PubChem BioAssay AID1224826 | NIAID, 2016

Purpose: 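Regulators of Tlr4 signalling leading to Tnf-alpha expression in macrophages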 (primary screen)
System: RAW264.7 G9 macrophages from mouse bearing reporters for p65 (GFP) and the Tnf promoter (mCherry)
Reagent: siRNA pool against mouse genes, 100 nM
Timing: 16 h of LPS stimulation, after 2 days of siRNA transfection
Conditions: bacterial lipopolysaccharide (Salmonella minnesota R595), 10 ng/ml
Measurement: 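Imaged Tnf reporter mCherry in nuclei, minus background, normalised per plate to the median and expressed as robust z-scores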
Direction: Tnf reporter robust z-score: higher = stronger Tnf promoter reporter signal after LPS
Hit rule: 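a well counts as active at a score of -1.3 or below (Tlr4 knock-down control median) or above 3 (raised signal); controls and wells holding fewer than 50 cells are excluded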
Meaning of the calls: active = Tnf reporter clearly lowered or raised; inactive = no clear change in Tnf reporter
Here is one part, drawn at random, of about 17,000 deposited reagents. About 1,110 of them (6.6%) were called active. 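Active means lowered or raised reporter signal; replicate intensities are raw and not normalised per plate.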 A number with no mark means an inactive call. Not all columns of the deposit are shown.

Usp6nl (USP6 N-terminal like) scored Tnf reporter robust z-score 0.79; fewer than 50 cells in well enough cells in well.
For Psmg2 (proteasome (prosome, macropain) assembly chaperone 2), the entry reads fewer than 50 cells in well fewer than 50 cells per well; well left out of calls.
Lce1a2 (late cornified envelope 1A2) showed Tnf reporter robust z-score 0.51; fewer than 50 cells in well enough cells in well.
With knock-down of Ube2m (ubiquitin-conjugating enzyme E2M) the results were Tnf reporter robust z-score -0.04; fewer than 50 cells in well enough cells in well.
Knock-down of H2-T23 (histocompatibility 2, T region locus 23) resulted in: Tnf reporter robust z-score 0.63; fewer than 50 cells in well enough cells in well.
With knock-down of Rtl5 (retrotransposon Gag like 5) the results were Tnf reporter robust z-score -0.13; fewer than 50 cells in well enough cells in well.
After knock-down of Or5v1 (olfactory receptor family 5 subfamily V member 1) the results were Tnf reporter robust z-score 0.42; fewer than 50 cells in well enough cells in well.
With knock-down of Klk1b26 (kallikrein 1-related petidase b26) the results were Tnf reporter robust z-score -0.45; fewer than 50 cells in well enough cells in well.
Or51s1 (olfactory receptor family 51 subfamily S member 1) gave fewer than 50 cells in well fewer than 50 cells per well; well left out of calls.
Silencing of Ralgps2 (Ral GEF with PH domain and SH3 binding motif 2) came out at: Tnf reporter robust z-score -0.78; fewer than 50 cells in well enough cells in well.
Against Chchd4 (coiled-coil-helix-coiled-coil-helix domain containing 4), the entry reads Tnf reporter robust z-score -0.42; fewer than 50 cells in well enough cells in well.
Knock-down of Cd36 (CD36 molecule) came out at: Tnf reporter robust z-score 1.69; fewer than 50 cells in well enough cells in well.
After knock-down of Adam3 (ADAM metallopeptidase domain 3), the record shows Tnf reporter robust z-score -0.08; fewer than 50 cells in well enough cells in well.
After knock-down of Defa6 (defensin, alpha, 6), the record shows Tnf reporter robust z-score 0.88; fewer than 50 cells in well enough cells in well.
Knock-down of Or8c8 (olfactory receptor family 8 subfamily C member 8) gave: Tnf reporter robust z-score 0.76; fewer than 50 cells in well enough cells in well.
Depletion of Wdr46 (WD repeat domain 46) gave: Tnf reporter robust z-score -0.05; fewer than 50 cells in well enough cells in well.
Silencing of Slc30a6 gave: fewer than 50 cells in well fewer than 50 cells per well; well left out of calls.
For Unc13a (unc-13 homolog A) the deposit lists Tnf reporter robust z-score 1.56; fewer than 50 cells in well enough cells in well.
Ceacam2 (CEA cell adhesion molecule 2) scored Tnf reporter robust z-score 1.56; fewer than 50 cells in well enough cells in well.
Ell (elongation factor RNA polymerase II) scored Tnf reporter robust z-score 0; fewer than 50 cells in well enough cells in well.
Depletion of Dnaja3 (DnaJ heat shock protein family (Hsp40) member A3) came out at: Tnf reporter robust z-score 0.72; fewer than 50 cells in well enough cells in well.

2 entries from above, limited to “fewer than 50 cells in well”:
Klk1b26 (kallikrein 1-related petidase b26) = enough cells in well
Or51s1 (olfactory receptor family 51 subfamily S member 1) = fewer than 50 cells per well; well left out of calls
